Reference: PubChem BioAssay AID652243 (Drosophila RNAi Screening Center, 2013)

- Purpose: 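Fly genes required for human androgen receptor driven transcription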 (primary screen)
- Cells: Drosophila S2R+ cells
- Knock-down reagent: long dsRNA against Drosophila genes
- Timing: 72 h (48 h, then 24 h hormone)
- Challenge: synthetic androgen R1881 at 10 nM for 24 h
- Read-out: 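Firefly light from an androgen-responsive reporter and Renilla control light per well, raw and unnormalised, for each of two replicates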
- Reading the numbers: firefly reporter light: higher = more light from androgen-responsive reporter; Renilla control light: higher = more constitutive control signal (cell number, transfection)
- Hit rule: 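Hit when the log firefly-to-Renilla ratio dropped or increased by a fixed fold versus the mean of GFP or LacZ controls across duplicate plates; lowering cut given as 1.5 and as 3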
- Calls: active = hit: reporter lowered or raised; inactive = no hit
In all, the deposit lists about 24,000 reagents; shown is an unselected part of those with a known target gene and a result. In the full data, 246 (1%) were called active. 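Plates not normalised; calls are printed but the firefly/Renilla ratio behind them is not deposited; fold cut for lowering reported inconsistently.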 The raw values are shown without normalisation. Names joined by + are all predicted targets of the reagent. Not stated in the record: the amount of reagent.

CG12684 [DRSC17875] | firefly reporter light, replicate 1 = 3.09e5; firefly reporter light, replicate 2 = 2.34e5; Renilla control light, replicate 1 = 2.89e6; Renilla control light, replicate 2 = 3.11e6; call = inactive
CG3916 [DRSC15520] | firefly reporter light, replicate 1 = 1.13e5; firefly reporter light, replicate 2 = 1.60e5; Renilla control light, replicate 1 = 1.42e6; Renilla control light, replicate 2 = 1.39e6; call = inactive
CG3916 [DRSC26907] | firefly reporter light, replicate 1 = 3.94e5; firefly reporter light, replicate 2 = 3.01e5; Renilla control light, replicate 1 = 4.72e5; Renilla control light, replicate 2 = 3.29e5; call = inactive
CG10405 [DRSC14238] | firefly reporter light, replicate 1 = 1.66e5; firefly reporter light, replicate 2 = 1.44e5; Renilla control light, replicate 1 = 2.41e6; Renilla control light, replicate 2 = 2.50e6; call = inactive
Crtc (CREB-regulated transcription coactivator) [DRSC23130] | firefly reporter light, replicate 1 = 4.79e5; firefly reporter light, replicate 2 = 5.11e5; Renilla control light, replicate 1 = 1.53e6; Renilla control light, replicate 2 = 1.68e6; call = inactive
Crtc (CREB-regulated transcription coactivator) [DRSC26174] | firefly reporter light, replicate 1 = 3.30e5; firefly reporter light, replicate 2 = 3.21e5; Renilla control light, replicate 1 = 5.85e5; Renilla control light, replicate 2 = 4.62e5; call = inactive
CG11882 [DRSC14425] | firefly reporter light, replicate 1 = 1.34e5; firefly reporter light, replicate 2 = 1.27e5; Renilla control light, replicate 1 = 2.08e6; Renilla control light, replicate 2 = 2.15e6; call = inactive
CG11882 [DRSC27909] | firefly reporter light, replicate 1 = 6.18e5; firefly reporter light, replicate 2 = 3.87e5; Renilla control light, replicate 1 = 2.11e6; Renilla control light, replicate 2 = 1.40e6; call = inactive
cm + Inx7 [DRSC18753] | firefly reporter light, replicate 1 = 1.07e5; firefly reporter light, replicate 2 = 92189; Renilla control light, replicate 1 = 6.83e5; Renilla control light, replicate 2 = 4.85e5; call = inactive
CG2150 [DRSC23444] | firefly reporter light, replicate 1 = 7.02e5; firefly reporter light, replicate 2 = 7.74e5; Renilla control light, replicate 1 = 7.62e5; Renilla control light, replicate 2 = 7.75e5; call = inactive
bi (bifid) [DRSC18742] | firefly reporter light, replicate 1 = 3.27e5; firefly reporter light, replicate 2 = 3.18e5; Renilla control light, replicate 1 = 3.05e6; Renilla control light, replicate 2 = 2.90e6; call = inactive
bi (bifid) [DRSC28848] | firefly reporter light, replicate 1 = 4.37e5; firefly reporter light, replicate 2 = 5.09e5; Renilla control light, replicate 1 = 1.09e6; Renilla control light, replicate 2 = 1.26e6; call = inactive
bi (bifid) [DRSC38941] | firefly reporter light, replicate 1 = 7.69e5; firefly reporter light, replicate 2 = 8.28e5; Renilla control light, replicate 1 = 1.79e6; Renilla control light, replicate 2 = 1.75e6; call = inactive
CG7384 [DRSC03053] | firefly reporter light, replicate 1 = 1.09e6; firefly reporter light, replicate 2 = 1.22e6; Renilla control light, replicate 1 = 2.09e6; Renilla control light, replicate 2 = 2.56e6; call = inactive
CG14020 [DRSC02350] | firefly reporter light, replicate 1 = 82643; firefly reporter light, replicate 2 = 1.28e5; Renilla control light, replicate 1 = 9.98e5; Renilla control light, replicate 2 = 9.47e5; call = inactive
fng (fringe) [DRSC11455] | firefly reporter light, replicate 1 = 2.42e5; firefly reporter light, replicate 2 = 1.83e5; Renilla control light, replicate 1 = 6.84e5; Renilla control light, replicate 2 = 6.20e5; call = inactive
fng (fringe) [DRSC11887] | firefly reporter light, replicate 1 = 33082; firefly reporter light, replicate 2 = 41145; Renilla control light, replicate 1 = 4.82e5; Renilla control light, replicate 2 = 4.68e5; call = inactive
fng (fringe) [DRSC21935] | firefly reporter light, replicate 1 = 6.04e5; firefly reporter light, replicate 2 = 5.48e5; Renilla control light, replicate 1 = 1.53e6; Renilla control light, replicate 2 = 1.88e6; call = inactive
mRpL16 (mitochondrial ribosomal protein L16) [DRSC18550] | firefly reporter light, replicate 1 = 97601; firefly reporter light, replicate 2 = 81035; Renilla control light, replicate 1 = 1.14e6; Renilla control light, replicate 2 = 6.70e5; call = inactive
mRpL16 (mitochondrial ribosomal protein L16) [DRSC29510] | firefly reporter light, replicate 1 = 2.94e5; firefly reporter light, replicate 2 = 4.77e5; Renilla control light, replicate 1 = 6.38e5; Renilla control light, replicate 2 = 6.38e5; call = inactive
CG10877 [DRSC14274] | firefly reporter light, replicate 1 = 2.17e5; firefly reporter light, replicate 2 = 2.93e5; Renilla control light, replicate 1 = 2.69e6; Renilla control light, replicate 2 = 3.00e6; call = inactive
